Measured values published in patent US20110112012A1 (UNIVERSITY OF GEORGIA STUDIES RESEARCH FOUNDATION, published 2011).
No constants are given. Whether binding was seen depends on the method and setting. Some entries that bind do so weakly or less than the wild type.

Columns and labels:
[1] = target: AgCad1 of Anopheles gambiae larval brush border membrane vesicles (200 kDa protein) (Anopheles gambiae); test: ligand blot of BBMV proteins, detected with anti-Cry4Ba serum
[2] = target: T1, CR11-MPED peptide of AgCad1 (amino acids 1358G to 1569A), expressed in E. coli (Anopheles gambiae); test: dot blot with ^125I-Cry4Ba; 1000-fold unlabeled Cry4Ba partially reduced the binding
T1 sequence: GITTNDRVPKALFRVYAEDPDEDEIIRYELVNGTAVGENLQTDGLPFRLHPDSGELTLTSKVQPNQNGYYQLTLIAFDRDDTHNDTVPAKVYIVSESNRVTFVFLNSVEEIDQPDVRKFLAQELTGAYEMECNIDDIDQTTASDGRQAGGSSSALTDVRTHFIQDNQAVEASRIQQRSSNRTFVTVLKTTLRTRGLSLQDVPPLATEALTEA

[3] = target: AgCad1, Anopheles gambiae cadherin, full length, expressed in Drosophila S2 cells from pIZT-AgCad1 with C-terminal V5 epitope tag (Anopheles gambiae); test: bead extraction (Cry4Ba on anti-Cry4Ba/Protein A beads) from CHAPS-solubilized S2 cells, anti-V5 blot
[4] = target: AgCad1, Anopheles gambiae cadherin, full length, expressed in Drosophila S2 cells from pIZT-AgCad1 with C-terminal V5 epitope tag (Anopheles gambiae); test: dot blot with ^125I-Cry4Ba
[5] = target: T1, CR11-MPED peptide of AgCad1 (amino acids 1358G to 1569A), expressed in E. coli (Anopheles gambiae); test: dot blot with ^125I-Cry4Ba
[6] = target: TM-Cyto peptide of AgCad1 (amino acids 1570D to 1735F), expressed in E. coli (Anopheles gambiae); test: dot blot with ^125I-Cry4Ba; 1000-fold unlabeled Cry4Ba had no effect on the binding
[7] = target: AgCad1, Anopheles gambiae cadherin, full length, expressed in Drosophila S2 cells from pIZT-AgCad1 with C-terminal V5 epitope tag (Anopheles gambiae); test: dot blot of partially purified AgCad1 from S2 cells, non-denaturing, autoradiography

Measured: binding

B1: Cry4Ba toxin (Cry4BRA mutant, R203 replaced by A) of Bacillus thuringiensis israelensis (protein)
chain: VAGAILKFVNPPAGTVLTVLSAVLPILWPTNTPTPERVWNDFMTNTGNLIDQTVTAYVRTDANAKMTVVKDYLDQYTTKFNTWKREPNNQSYRTAVITQFNLTSAKLRETAVYFSNLVGYELLLLPIYAQVANFNLLLIRDGLINAQEWSLAASAGDQLYNTMVQYTKEYIAHSITWYNKGLDVLRNKSNGQWITFNDYKREMTIQVLDILALFASYDPRRYPADKIDNTKLSKTEFTREIYTALVESPSSKSIAALEAALTRDVHLFTWLKRVDFWTNTIYQDLRFLSANKIGFSYTNSSAMQESGIYGSSGFGSNLTHQIQLNSNVYKTSITDTSSPSNRVTKMDFYKIDGTLASYNSNITPTPEGLRTTFFGFSTNENTPNQPTVNDYTHILSYIKTDVIDYNSNRVSFAWTHKIVDPNNQIYTDAITQVPAVKSNFLNATAKVIKGPGHTGGDLVALTSNGTLSGRMEIQCKTSIFNDPTRSYGLRIRYAANSPIVLNVSYVLQGVSRGTTISTESTFSRPNNIIPTDLKYEEFRYKDPFDAIVPMRLSSNQLITIAIQPLNMTSNNQVIIDRIEIIPITQSVLDET
binds: all assays above
